PubChem BioAssay AID1224826 | NIAID | 2016
The whole screen tested about 17,000 reagents; this is an unselected part. Of all reagents, about 1,110 (6.6%) were called active. 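Active means lowered or raised reporter signal; replicate intensities are raw and not normalised per plate.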 Entries without a mark were called inactive. Further read-outs or replicates are left out here.

Test: 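Regulators of Tlr4 signalling leading to Tnf-alpha expression in macrophages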 (primary screen)
Cell system: RAW264.7 G9 macrophages from mouse bearing reporters for p65 (GFP) and the Tnf promoter (mCherry)
Knock-down reagent: siRNA pool against mouse genes, 100 nM
Duration: 16 h of LPS stimulation, after 2 days of siRNA transfection
Challenge: bacterial lipopolysaccharide (Salmonella minnesota R595), 10 ng/ml
Detection: 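Imaged Tnf reporter mCherry in nuclei, minus background, normalised per plate to the median and expressed as robust z-scores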
Reading the numbers: Tnf reporter robust z-score: higher = stronger Tnf promoter reporter signal after LPS
Call rule: 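a well counts as active at a score of -1.3 or below (Tlr4 knock-down control median) or above 3 (raised signal); controls and wells holding fewer than 50 cells are excluded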
Calls: active = Tnf reporter clearly lowered or raised; inactive = no clear change in Tnf reporter

no.	gene symbol	Tnf reporter robust z-score	fewer than 50 cells in well
1	Or11g7 (GeneID 258661)	-0.27	enough cells in well
2	Ephb6 (GeneID 13848)	-0.81	enough cells in well
3	Slc2a8 (GeneID 56017)	0.32	enough cells in well
4	Otp (GeneID 18420)		fewer than 50 cells per well; well left out of calls
5	Gpr137c (GeneID 70713)	-1.09	enough cells in well
6	Mrps2 (GeneID 118451)	0.4	enough cells in well
7	Acsm3 (GeneID 20216)	-0.2	enough cells in well
8	Acot13 (GeneID 66834)	0.74	enough cells in well
9	Mcpt9 (GeneID 17232)	-0.59	enough cells in well
10	Psmd2 (GeneID 21762)	1.67	enough cells in well
11	Abcc6 (GeneID 27421)	-1.28	enough cells in well
12	Inhca (GeneID 71775)	1.01	enough cells in well
13	Rps18 (GeneID 20084)		fewer than 50 cells per well; well left out of calls
14	Med17 (GeneID 234959)	-0.97	enough cells in well
15	Ltb4r2 (GeneID 57260)	0.1	enough cells in well
16	Btbd3 (GeneID 228662)	0.74	enough cells in well
17	Kif6 (GeneID 319991)	0.21	enough cells in well
18	Flrt2 (GeneID 399558)	0.71	enough cells in well
19	Slc2a4 (GeneID 20528)	0.02	enough cells in well
20	Mkln1 (GeneID 27418)	-0.72	enough cells in well
21	Nck2 (GeneID 17974)	-0.14	enough cells in well
22	Ptprn (GeneID 19275)	-0.55	enough cells in well
23	Piga (GeneID 18700)	-0.3	enough cells in well
24	Pura (GeneID 19290)	-1.34 (active)	enough cells in well
25	Cct7 (GeneID 12468)	2.36	enough cells in well
26	Fez2 (GeneID 225020)	-0.11	enough cells in well
27	Myo1f (GeneID 17916)	-1.16	enough cells in well
28	Csf3r (GeneID 12986)	-0.82	enough cells in well
29	Zbtb48 (GeneID 100090)	1.19	enough cells in well
30	Lypd6b (GeneID 71897)		fewer than 50 cells per well; well left out of calls
31	Slc12a2 (GeneID 20496)	0.69	enough cells in well
32	Slc18a3 (GeneID 20508)	1.07	enough cells in well
33	2410018L13Rik (GeneID 69732)	-1.44 (active)	enough cells in well
34	Prkcq (GeneID 18761)	1.08	enough cells in well
35	Dsg1c (GeneID 211924)	1.02	enough cells in well
36	Grik5 (GeneID 14809)	0.48	enough cells in well
37	Xpa (GeneID 22590)	-1.35 (active)	enough cells in well
38	Cfc1 (GeneID 12627)	0.16	enough cells in well
39	Acp3 (GeneID 56318)	0.52	enough cells in well
40	Dclk2 (GeneID 70762)	-0.02	enough cells in well
41	2900060N12Rik (GeneID 102641621)	-1.14	enough cells in well
42	Sp3os (GeneID 100503849)	1.75	enough cells in well
43	Tex46 (GeneID 67663)	-0.41	enough cells in well
44	Adam2 (GeneID 11495)	-0.72	enough cells in well
45	Or10ag53 (GeneID 258294)	-0.37	enough cells in well
46	Ccdc159 (GeneID 67119)	0.4	enough cells in well
47	Casp4 (GeneID 12363)	-1.58 (active)	enough cells in well
48	Zscan12 (GeneID 22758)	2.91	enough cells in well
49	Xlr3c (GeneID 22446)	1.49	enough cells in well
50	Bcor (GeneID 71458)	1.56	enough cells in well
51	Pde10a (GeneID 23984)	0.27	enough cells in well
52	Dot1l (GeneID 208266)	-0.9	enough cells in well
53	Gemin5 (GeneID 216766)	0.47	enough cells in well
54	Tspan17 (GeneID 74257)	-0.93	enough cells in well
55	Mcm2 (GeneID 17216)	0.62	enough cells in well
56	Gpr156 (GeneID 239845)	0.4	enough cells in well
57	Rbp2 (GeneID 19660)	1.09	enough cells in well
58	Uqcc1 (GeneID 56046)	1.94	enough cells in well

7 entries from above, ordered by “Tnf reporter robust z-score”, low to high:
gene symbol	Tnf reporter robust z-score	fewer than 50 cells in well
Mkln1 (GeneID 27418)	-0.72	enough cells in well
Nck2 (GeneID 17974)	-0.14	enough cells in well
Slc2a4 (GeneID 20528)	0.02	enough cells in well
Ltb4r2 (GeneID 57260)	0.1	enough cells in well
Kif6 (GeneID 319991)	0.21	enough cells in well
Flrt2 (GeneID 399558)	0.71	enough cells in well
Btbd3 (GeneID 228662)	0.74	enough cells in well
